The record followed here is PubChem BioAssay AID1347426 (Functional Genomics Laboratory (NCATS/FGL), 2020).

The whole screen tested about 31,000 sequences, of which about 1,400 (4.5%) were called active.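 How the source made its calls: active means median seed-adjusted z-score above 1 or below -1; inactive means the rest.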 Some of the results follow.

A short description of the assay: Novel Modifiers of Survival Motor Neuron (SMN) Protein: Gene Identification via Genome-wide siRNA Screen.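 Further: luminescence tracks full-length SMN protein made from the SMN2 reporter.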 The settings on record: HEK293T SMN2-luciferase reporter, siRNA knockdown, 72 h; actives lie on both sides. The method, boiled down:
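HEK293T cells stably carrying an SMN2 promoter/splicing cassette–luciferase reporter were reverse-transfected with 1 pmol siRNA per well (druggable-genome library, 3 siRNAs per gene) and grown 72 h at 37 °C. Luminescence, normalized to negative-control siRNA and log10-transformed, was scored as MAD.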
(A reporter such as luciferase makes a cellular process visible.)
As to GCCCACGAGUUUUCAACAATT against ZBTB47, the median seed-adjusted z-score is inactive: 0. For the sequence CCUUCACUGUGCUUACGGATT against PDE1C, the median seed-adjusted z-score is inactive: 0.157. In the case of AGAUGAGAUCGACUUCUUATT against KRT3, the median seed-adjusted z-score is inactive: 0.399. On to CCUAAGCCUUUGUAUCCCATT against KCTD6, for which the median seed-adjusted z-score was inactive: 0.124.

With GCAAGGCGAUUGAGAAAAATT against GNAO1, the median seed-adjusted z-score was inactive: 0.233. Take GAAUUGUUUAUCAGGAAUATT against EXOSC6: the median seed-adjusted z-score is inactive: 0.354. Turning to GAACAUUGUUUGUAAGGCUTT against SUOX, the median seed-adjusted z-score is inactive: -0.0649. Turning to GCCUGACAAUGUCCGAAUUTT against LRP2, the median seed-adjusted z-score was inactive: -0.512. GGAAUCGGAUAUAACAUCATT against GBA: the median seed-adjusted z-score was inactive: -0.492. Under CAGCAGUUAUGGACCAGUUTT against AMD1 stands inactive: -0.211; under GCAUCUGAAUGCAAGAAAATT against PIP3-E, inactive: 0.676; under AGAGUGGAUUUGUACCAAATT against RAB39B, inactive: 0.485. CCUAAUUACUUGCAUAGAATT against PPP2R1B: the median seed-adjusted z-score was inactive: -0.295. Consider GAUGUGAAGUUGGUACAAATT against CNOT6, for which the median seed-adjusted z-score was inactive: 0.146.

Regarding CCAACACUGACAUCCUCGATT against MEF2B, the median seed-adjusted z-score is inactive: 0.263.

For GGUACGAAUUUUGCGGUUATT against AP1G1, the median seed-adjusted z-score was inactive: 0.0802. Consider UCCUCACCGUGACCAAUAATT against MKL1, for which the median seed-adjusted z-score is inactive: -0.138. As for GGGCCUACUUUACAUCACATT against TXNDC14, the median seed-adjusted z-score was active: -2.39. As to GGGCCUUCAUGACAACUCATT against FURIN, the median seed-adjusted z-score is inactive: 0.0975. In the case of GCCUUAAAGACUUACCGAATT against USPL1, the median seed-adjusted z-score was active: -1.87. For the sequence GCAGAAAAGAACAACUUGUTT against RAB11B, the median seed-adjusted z-score was inactive: -0.857. With “GGAUGGUCAGCGACAGCUATT against ST6GALNAC4”, the median seed-adjusted z-score was inactive: -0.39. In the case of GACUAGGCCUUUCAACAGATT against ALPK3, the median seed-adjusted z-score is inactive: 0.365. As to AGAUAAAGCUAAGGAAGAATT against KHDRBS2, the median seed-adjusted z-score is inactive: -0.335.

As for CACCAGAAAUCAUAGACUUTT against GAK, the median seed-adjusted z-score was inactive: 0.488. In the case of GCUGUUAACUACCACUGUATT against DAZL, the median seed-adjusted z-score was inactive: -0.441. Take CGACUCGGCUCUUCCCUUUTT against DNASE1: the median seed-adjusted z-score is inactive: -0.35. As to GAAUCGGGCAUUAUGGUAATT against CACNA2D1, the median seed-adjusted z-score is inactive: -0.541.

Take UCCUUUAACUCGACAGUCATT against DRG2: the median seed-adjusted z-score was inactive: -0.175. For CAGCAAACCUUUGACCAGATT against U2AF2, the median seed-adjusted z-score is active: 2.14. In the case of UCUUCGUGGUGGACAGCAATT against ARF1, the median seed-adjusted z-score is inactive: -0.371. Turning to GGUGAGCUCUGCAUGAAUATT against CLPS, the median seed-adjusted z-score was inactive: -0.799.

For the sequence GCAGCAGAUUGAGCAGUCATT against PEX5, the median seed-adjusted z-score is inactive: -0.0414. For the sequence GCUCUAGCCUGUAAGUAUATT against PDHA1, the median seed-adjusted z-score is inactive: 0.346. On to GGCAAGAGCUUGUAUCCAATT against CCNG1, for which the median seed-adjusted z-score is inactive: 0.131. Regarding GGGAGUACAUCUACAUGCATT against KEAP1, the median seed-adjusted z-score is inactive: 0.207. GUCUUCAUGUAUGUCUUUUTT against GJB1: the median seed-adjusted z-score was inactive: 0.152. As for GAAUCCAGAUGACAGAUUATT against CDKL4, the median seed-adjusted z-score was inactive: 0.13.

Turning to CUCGAGAAAUUGUCACGUATT against DYNC1I2, the median seed-adjusted z-score is inactive: -0.167.

As for GGACUGCAGCUCAUACCUATT against OTX1, the median seed-adjusted z-score is inactive: -0.475. AGAGAGAGCUUCAAAAUUATT against PPP1R14C: the median seed-adjusted z-score is inactive: -0.316.

Take CGUUGUUUUUGAGCACGUUTT against LMBR1: the median seed-adjusted z-score is inactive: 0.236.

As for GCCUAAUGAUGGAAAGAUUTT against ZNF643, the median seed-adjusted z-score was inactive: -0.0134. With CAAAGGAUAGCUUCUUUUUTT against RASL10B, the median seed-adjusted z-score was inactive: -0.377. On to GCCUCAGACAAGAUUGAAATT against COX11, for which the median seed-adjusted z-score was inactive: -0.317. In the case of GGAAAAUCAUUGUGCUAAUTT against VN2R1P, the median seed-adjusted z-score is inactive: -0.25. GAACAACCUUCAUUGGAAUTT against ZC3HC1: the median seed-adjusted z-score is inactive: -0.859. Consider AGAGAAAAACUGGACAAAATT against TFAP2A, for which the median seed-adjusted z-score is inactive: -0.384. With GGGCACCAGUGGUAAGACATT against NFKBIE, the median seed-adjusted z-score is inactive: -0.452. The figure for GCUUUUACUUCUAAUCGAATT against ZNF660 is inactive: 0.251; for GCCUAUGAGUGUGAGAAGATT against ARID3B it is inactive: -0.0846. The figure for GCUCCAUCCUCAAUGAGUATT against MPN2 is inactive: 0.108; for GGAGAUAUUUUUGACGGAATT against ZFHX3 it is inactive: 0.045; for GCUUAAUGGUGUCCCGUAATT against PCCA it is inactive: 0. With GCUUGAUGCUGAACAACAATT against LRRN1, the median seed-adjusted z-score is inactive: -0.407.

Take GGAUGGGUCUCCUACUACATT against SLC40A1: the median seed-adjusted z-score was inactive: -0.177. For the sequence GGCAAAAGGUCAUCCCAGATT against CAPN5, the median seed-adjusted z-score was inactive: 0.535.

For GCAUCUAUGUCAACAAGAUTT against POLR2I, the median seed-adjusted z-score was active: -3.27.

Regarding GCAGGCAACUAACACGGAATT against TPPP, the median seed-adjusted z-score is inactive: -0.16.

Take ACAAUCCAAUGAUACAGAATT against RNF113A: the median seed-adjusted z-score is inactive: -0.128. With GUCCGUGGGUGAUAAUUGATT against VWA1, the median seed-adjusted z-score is inactive: 0.289.

As to GAUCAAGCCUAAAGAUACATT against DAPK1, the median seed-adjusted z-score was inactive: 0.27. Regarding GGGACAAUUUGCUAGCUUATT against SLC6A14, the median seed-adjusted z-score is inactive: 0. The figure for GGAACAGACGAGUACAACATT against PRKCSH is inactive: -0.0512.

Take AGAUGCAGAAUGUCAUGUATT against KCNN3: the median seed-adjusted z-score was inactive: -0.625. Regarding GCAUGGACGUGAUUUUGGUTT against DNMT3L, the median seed-adjusted z-score was inactive: 0.0651. Under CCUCCGCUGUGACCUUUGATT against NHLRC1 stands inactive: -0.582. On to CAAGCAAGAGAUUAGUGAATT against ZNF436, for which the median seed-adjusted z-score is inactive: 0.00767.
